One assay concerns the target Annexin V (UniProt P08758). Nature of the assay: ELISA, plates coated with Annexin V, GST fusion proteins detected with anti-GST fusion protein antibodies (not shown). On the technique in general: ELISA stands for enzyme-linked immunosorbent assay.
The target in assay [1] is GST-β5cyto (GST fusion protein of the integrin β5 cytoplasmic domain) (UniProt P18084). Nature of the assay: ELISA, plates coated with GST-β5, Annexin V detected with anti-Annexin V antibodies.

Protein sequences, listed by entry. Tags and fused reporters are not part of them. Lines headed by an entry give the natural chain unless they say otherwise; changes in a name come on top. Residues count along the entry.
UniProt P08758, residues 2-320: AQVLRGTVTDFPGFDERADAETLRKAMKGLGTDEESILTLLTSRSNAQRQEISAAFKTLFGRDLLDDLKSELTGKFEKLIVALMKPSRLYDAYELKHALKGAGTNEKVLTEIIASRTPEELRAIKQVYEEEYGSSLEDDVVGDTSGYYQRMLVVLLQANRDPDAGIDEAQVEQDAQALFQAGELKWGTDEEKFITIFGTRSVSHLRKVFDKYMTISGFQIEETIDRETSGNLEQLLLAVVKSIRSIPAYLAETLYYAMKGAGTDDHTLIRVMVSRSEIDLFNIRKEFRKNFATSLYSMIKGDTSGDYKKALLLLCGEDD
UniProt P18084: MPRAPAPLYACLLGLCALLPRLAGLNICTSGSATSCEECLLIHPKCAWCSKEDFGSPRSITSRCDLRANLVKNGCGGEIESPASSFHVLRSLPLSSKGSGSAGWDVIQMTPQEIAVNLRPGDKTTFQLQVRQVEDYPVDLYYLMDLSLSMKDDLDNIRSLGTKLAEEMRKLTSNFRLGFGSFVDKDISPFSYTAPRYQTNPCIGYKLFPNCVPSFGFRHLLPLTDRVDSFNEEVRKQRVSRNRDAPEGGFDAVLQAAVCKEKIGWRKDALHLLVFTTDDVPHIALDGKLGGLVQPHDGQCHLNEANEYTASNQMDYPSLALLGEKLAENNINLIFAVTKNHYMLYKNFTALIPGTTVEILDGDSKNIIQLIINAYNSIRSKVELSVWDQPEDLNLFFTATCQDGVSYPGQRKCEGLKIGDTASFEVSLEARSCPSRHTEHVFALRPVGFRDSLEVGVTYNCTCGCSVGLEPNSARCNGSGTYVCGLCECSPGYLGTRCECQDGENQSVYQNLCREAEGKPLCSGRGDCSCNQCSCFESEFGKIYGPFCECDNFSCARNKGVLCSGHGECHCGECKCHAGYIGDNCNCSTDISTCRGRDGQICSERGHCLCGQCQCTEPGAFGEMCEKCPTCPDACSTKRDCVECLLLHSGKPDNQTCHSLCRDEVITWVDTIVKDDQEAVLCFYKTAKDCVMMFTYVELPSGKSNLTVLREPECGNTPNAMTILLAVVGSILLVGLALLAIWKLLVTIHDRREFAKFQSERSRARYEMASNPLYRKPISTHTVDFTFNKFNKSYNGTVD

No constants are given. Whether binding was seen depends on the method and setting. Some binding calls cover weakened binding; strength is not graded here.

As for “GST-β5cyto (GST fusion protein of the integrin β5 cytoplasmic domain) (from UniProt P18084 749-799)”, the binding result in the assay with Annexin V is “binds”.

Take Annexin V (from UniProt P08758 2-320): in assay [1], the binding result is listed as “binds”.
